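A cell line overexpressing EP4 prostanoid receptors, stimulated with a low (about EC15) PGE2 dose; cAMP read by HTRF FRET after a short room-temperature incubation. Compounds were tested at 20 µM final. A low (about EC15) PGE2 dose was present. Percent cAMP induction as a fraction of the 1 µM PGE2 response, averaged over three replicates; a higher value means more cAMP.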

Values are in %. Common to all entries: measured here: EP4 receptor counter-screen. Part of the compounds only, not a random draw; the main read-out is not listed here.

Compound	condition	cAMP induction (%)
O=c1[nH]c2ccc(Cl)cc2c(-c2ccccc2)c1N1CCOCC1	percent of 1 uM PGE2 response; plus low (about EC15) PGE2 agonist	-0.7467
Cc1sc(NC(=O)c2ccccc2F)c(CN2CCCCC2)c1C	percent of 1 uM PGE2 response; plus low (about EC15) PGE2 agonist	11.36
CCOC(=O)c1ccccc1NC1c2ccccc2C(=O)N1c1cc(C)ccn1 (configuration not stated)	percent of 1 uM PGE2 response; plus low (about EC15) PGE2 agonist	-13.88
C=C(C)COc1ccc2c(c1)CC[C@@H]1[C@H]3C/C(=N/O)C(=O)[C@]3(C)CC[C@@H]21	percent of 1 uM PGE2 response; plus low (about EC15) PGE2 agonist	10.79
Nc1c(C(=O)NCc2ccccc2)c2nc3ccccc3nc2n1CCCN1CCOCC1	percent of 1 uM PGE2 response; plus low (about EC15) PGE2 agonist	-11.2
CCCSc1nc(N2CCCC2)c2c(c1C#N)CC(C)(C)OC2	percent of 1 uM PGE2 response; plus low (about EC15) PGE2 agonist	4.607
O=C(c1ccc2c(c1)OCO2)N(Cc1cccs1)C1(C(=O)NC2CCCCC2)CCCCC1	percent of 1 uM PGE2 response; plus low (about EC15) PGE2 agonist	-10.72
Cc1cccc(NCc2nc3ccccc3n2Cc2ccccc2)c1	percent of 1 uM PGE2 response; plus low (about EC15) PGE2 agonist	-13.11
O=C(CSc1nc(Cc2ccccc2)nc2ccccc12)c1ccc2c(c1)OCCO2	percent of 1 uM PGE2 response; plus low (about EC15) PGE2 agonist	-3.723
FC(F)(F)c1nc(=S)c2ccccc2[nH]1	percent of 1 uM PGE2 response; plus low (about EC15) PGE2 agonist	66.31
c1cncc(-c2nc(N3CCOCC3)c3c4c(sc3n2)CCC4)c1	percent of 1 uM PGE2 response; plus low (about EC15) PGE2 agonist	-1.107
Cc1cccc(NC(=O)CSc2ncnc3c2oc2ccccc23)c1	percent of 1 uM PGE2 response; plus low (about EC15) PGE2 agonist	63.31
Cc1cc2ccccc2nc1SCC(=O)NC1CCCCC1	percent of 1 uM PGE2 response; plus low (about EC15) PGE2 agonist	43.22
Cc1cc(Nc2ccc(Br)cc2)n2nc(C)nc2n1	percent of 1 uM PGE2 response; plus low (about EC15) PGE2 agonist	-2.447
CCCC(=O)C1=C(O)C(C(=O)OC)C(C)(C)CC1=Nc1cccc2ccccc12 (configuration not stated)	percent of 1 uM PGE2 response; plus low (about EC15) PGE2 agonist	-19.78
Cc1ccc(C(Sc2ccccc2)C(Cn2cncn2)C(=O)c2ccccc2)cc1 (configuration not stated)	percent of 1 uM PGE2 response; plus low (about EC15) PGE2 agonist	-17.2
COC(=O)c1sc2nc(N3CCCCC3)c3c(c2c1N)CCCC3	percent of 1 uM PGE2 response; plus low (about EC15) PGE2 agonist	39.51
CC1=CC(C)(C)N2C(=O)C3(SCC(=O)N3c3ccc(F)cc3)c3cc(C)cc1c32 (configuration not stated)	percent of 1 uM PGE2 response; plus low (about EC15) PGE2 agonist	-19.24
CC(C)OC(=O)c1c(NC(=O)CCn2nnc3ccccc32)sc2c1CCCC2	percent of 1 uM PGE2 response; plus low (about EC15) PGE2 agonist	-6.657
CCCCOC(=O)n1c(=S)oc2cc(Cl)ccc21	percent of 1 uM PGE2 response; plus low (about EC15) PGE2 agonist	-15.43
CC1CN(c2nc3ccccc3cc2-c2ccccc2)CC(C)O1 (configuration not stated)	percent of 1 uM PGE2 response; plus low (about EC15) PGE2 agonist	-6.65
O=C(c1ccco1)N(CCC(c1ccccc1)c1ccco1)Cc1ccc(F)cc1 (configuration not stated)	percent of 1 uM PGE2 response; plus low (about EC15) PGE2 agonist	-4.873
CCCCNc1nc(N(C)c2ccccc2)nc(-n2ccnc2)n1	percent of 1 uM PGE2 response; plus low (about EC15) PGE2 agonist	-9.117
CC1(C)C=Cc2c(c3c(c4c(=O)c(-c5ccc(O)cc5)coc24)OC(C)(C)CC3)O1	percent of 1 uM PGE2 response; plus low (about EC15) PGE2 agonist	-26.24
CCOC(=O)c1c(NC(=O)c2ccc(N3C(=O)[C@@H]4[C@H](C3=O)[C@H]3C=C[C@@H]4C3)cc2)sc2c1CC(C)CC2 (some centres not stated)	percent of 1 uM PGE2 response; plus low (about EC15) PGE2 agonist	15.38
CNC[C@H](O)c1ccc(O)c(O)c1	percent of 1 uM PGE2 response; plus low (about EC15) PGE2 agonist	1.44
O=[N+]([O-])c1ccc(Cl)c2c1C1C=CCC1C(c1ccccn1)N2 (configuration not stated)	percent of 1 uM PGE2 response; plus low (about EC15) PGE2 agonist	0.23
O=C(Nc1ccccc1Oc1ccccc1)c1cnccn1	percent of 1 uM PGE2 response; plus low (about EC15) PGE2 agonist	5.343
O=C(c1ccccc1O)N1N=C(c2ccccc2)CC1(O)C(F)(F)F (configuration not stated)	percent of 1 uM PGE2 response; plus low (about EC15) PGE2 agonist	0.04333
CC1CCc2c(sc(N)c2C(=O)OC(C)C)C1 (configuration not stated)	percent of 1 uM PGE2 response; plus low (about EC15) PGE2 agonist	3.297

The last 3 entries again:

{"compound": "O=C(Nc1ccccc1Oc1ccccc1)c1cnccn1", "condition": "percent of 1 uM PGE2 response; plus low (about EC15) PGE2 agonist", "cAMP induction (%)": "5.343"}
{"compound": "O=C(c1ccccc1O)N1N=C(c2ccccc2)CC1(O)C(F)(F)F", "stereo": "configuration not stated", "condition": "percent of 1 uM PGE2 response; plus low (about EC15) PGE2 agonist", "cAMP induction (%)": "0.04333"}
{"compound": "CC1CCc2c(sc(N)c2C(=O)OC(C)C)C1", "stereo": "configuration not stated", "condition": "percent of 1 uM PGE2 response; plus low (about EC15) PGE2 agonist", "cAMP induction (%)": "3.297"}

Data taken from PubChem BioAssay AID1080, deposited by Emory University Molecular Libraries Screening Center (2008).